Experimental data taken from PMC10163288.
Some of the results follow.

B1: il10ra_site1_sap_14_mot_b26a303360aa2756ef5b79665ce52f45_0001_000000179_0001_1_11_H_._HHH_b1_02861_af2_0001_0000200013_0000002_0_0001 (protein)
chain: SSSSDEEYREEVERLLEEVERIDNPDEAYRLLKEAIELAAELGDQELFRLIMEVIREWLNSSSSS
B2: il10ra_site1_sap_14_mot_HHH_b2_02337_000000026_0001_38_52_H_._HHH_b2_04470_0001_0000100009_0000001_0_0001 (protein)
chain: SSSSSSREEVLRLSQEAFHLLLRGDPEEAKEVLEEARELAEELGDERLLKVIRDLLKVIDSSSSS
B3: il10ra_site1_sap_19_mot_e1dd4851c59bc1cdde016f988f6856bd_0001_1_000000200_0001_16_31_H_._HHH_b2_03133_0001_0000700045_0000002_0_0001 (protein)
chain: SSSSDVAQRIAELLRRAVELLNEGNPEEAEELVEEALELAQENNNQLLAHNAEFVLRDVRSSSSS
B4: il10ra_site1_sap_16_mot_HHH_b2_00943_af2_000000149_0001_1_17_H_._HHH_b1_01109_af2_0001_0000300014_0000001_0_0001 (protein)
chain: SSSSDLEELVKAALRLAEQAAKWGDPRAARLLLEALEELLERENNPELLEEVERLLEELNSSSSS
B5: il10ra_site1_sap_21_mot_HHH_b2_02463_af2_000000222_0001_1_19_H_._HHH_b1_01285_0001_0000200013_0000001_0_0001 (protein)
chain: SSSSDEANQEALELVVEAVRLALRGNPEEAKEVLEEARELAREGNNERLVKMIEDMLRALDSSSS
B6: il10ra_site1_normal_mot_HHH_b2_03039_af2_000000183_0001_1_19_H_._HHH_b2_04021_0001_0000200019_0000001_0 (protein)
chain: SSSSQEEELSEFLRRLLRELLERGDEEFLESLLRAAEESAKALNDEELEEEVEEIERELKSSSSS
B7: il10ra_site1_sap_25_mot_HHH_b1_01849_000000247_0001_21_38_H_._HHH_b1_06582_0001_0000100008_0000001_0_0001 (protein)
chain: SSTVEELAEEAQKILEELAELNPENRWAARFWAHILRVAVELNNEEHVESVARAVRALEEALSSS
B8: il10ra_site1_sap_11_mot_HHH_b1_06348_000000162_0001_1_15_H_._HHH_b2_04994_af2_0001_0000100006_0000001_0_0001 (protein)
chain: SSSSDERFELVEEAIKEAKELWEQGNEEEARKLIEEALERLEEEGDWVALAALEHLLKVLSSSSS
B9: il10ra_site1_normal_mot_HHH_b2_07488_000000216_0001_1_17_H_._HHH_b1_07994_0001_0000200015_0000001_0 (protein)
chain: SSSSTQEASELFVRIVELIEEGDEEEARRLIEELEEIAEKLNDPKARLSLRFIRALLEAYFSSSS
B10: il10ra_site1_sap_17_mot_HHH_b1_00942_af2_000000135_0001_43_54_H_._HHH_b2_01999_af2_0001_0001000029_0000001_0_0001_af2pred_0001 (protein)
chain: SSSSEELERSVRLLLELARLALELGDPETAKLSLREAEILARIMGDEELLEELEELLREIRSSSS
B11: il10ra_site1_sap_24_mot_HHH_b1_02997_000000220_0001_39_52_H_._HHH_b1_00066_0001_0000400019_0000001_0_0001 (protein)
chain: SSSSSEVEELYRLIRELNELVKRGDEEEFEKLYEEVHKLAEETNTAWARAVLRLLQRQVESSSSS
B12: il10ra_site1_sap_21_mot_HHH_b1_08477_000000091_0001_40_57_H_._HHH_b2_00893_0001_0000600036_0000001_0_0001 (protein)
chain: SSSSDAAHRVYELSRRAMEALAEGNPEEAREILEEAIELAEEGGNRVLLHVAEYALRQVEGSSSS
B13: il10ra_site1_normal_mot_HHH_b1_05185_000000011_0001_22_39_H_._HHH_b2_02050_0001_0000900035_0000001_0_af2pred_0001 (protein)
chain: SSSSSSSRRLRHLLKALKQILELNDEERAKLTARVALHLAEELGDEEVLEELQKILEELSSSSSS
B14: il10ra_site1_normal_mot_HHH_b2_05686_000000041_0001_1_18_H_._HHH_b2_06530_0001_0000100014_0000001_0 (protein)
chain: SSSDTARRSLEFAIKLAKELLELGDPERARLVVREAVKFARQLGDEELLKLAEELLEEIEKSSSS
B15: il10ra_site1_sap_13_mot_2fa031a62b9321f410fa37cb4b35ac9e_0001_af2_000000160_0001_1_14_H_._HHH_b1_00672_0001_0000300018_0000001_0_0001 (protein)
chain: SSSSTSEELEQLLHELWRAVKRNDKELARELTEQIEELAEELGNRAAKFLAKQALKAVELVSSSS
B16: il10ra_site1_normal_mot_HHH_b2_00441_000000175_0001_1_18_H_._HHH_b1_00478_af2_0001_0000100001_0000001_0 (protein)
chain: SSSSDEDERYAKLSLRFIEALLKDGDPEAARLMLHALRQIVERVGDPELEEILQEAEELVNSSSS
B17: il10ra_site1_normal_mot_HHH_b2_05343_000000235_0001_19_35_H_._ems_3hC_444_0001_af2_0001_0000200008_0000002_0 (protein)
chain: SSDEHQEFFRVVREAIEAASEKDEEEAEELVKEAEKIAEEIGNLVAEAIVKFVKRQVELLRSSSS
B18: il10ra_site1_normal_mot_HHH_b2_04057_000000065_0001_1_20_H_._HHH_b2_03519_0001_0000200024_0000002_0 (protein)
chain: SSSSDEEEEEVRELLEEARRIEDPDEVYRLIREAIEIATELGDPEVIRLVLEFSREWIEGSSSSS
B19: il10ra_site1_normal_mot_HHH_b2_07144_000000289_0001_1_18_H_._HHH_b2_01788_0001_0000100002_0000001_0 (protein)
chain: SSSSDEESREAYELSREAAELLRKGNPEEARKVLEEAERLAEEANNPAFLFSLEHLLRVLNSSSS
B20: il10ra_site1_normal_mot_HHH_b1_06789_af2_000000041_0001_1_20_H_._HHH_b2_02576_0001_0000300019_0000001_0 (protein)
chain: SSSSSSDEEVEELAEEAIEKAPDEAARFLLRQALKALRLAGDPRAERILENLARIILGSSSSSSS
B21: il10ra_site1_normal_mot_b26a303360aa2756ef5b79665ce52f45_0001_000000179_0001_1_11_H_._HHH_b2_07664_af2_0001_0000100004_0000001_1_af2pred_0001 (protein)
chain: SSSSSDERKEAVELARRVAELYAEGDEEEAEKVAEEAIEIARELGSRLIVHNLEHLLRRASSSSS
B22: il10ra_site1_normal_mot_HHH_b2_08186_000000021_0001_43_56_H_._HHH_b1_05595_af2_0001_0000200009_0000001_0 (protein)
chain: SSSSDLEERIRELEEEIRELEERGDRERVLRLLQEILQLIYKAKDQEALKELWELLQRLRSSSSS
B23: il10ra_site1_normal_mot_HHH_b1_00566_000000151_0001_22_39_H_._HHH_b1_00313_af2_0001_0000700014_0000001_0 (protein)
chain: SSSSDEREEIAILVAEAIILAERRGDKEVAEELWQLLVEAYYHGDPELFREVEELAEKFLSSSSS
B24: il10ra_site1_normal_mot_65b8060e20531850bca9f2e11f97d954_0001_af2_000000137_0001_17_31_H_._HHH_b1_03310_0001_0000100015_0000002_0_af2pred_0001 (protein)
chain: SSSSDEEIQRVAELYVKAAQLLDEGNPEEAHKLLEEMEELAEEGNNEKLRLTVRFLKALIESSSS
B25: il10ra_site1_sap_15_mot_HHH_b2_02537_000000065_0001_1_20_H_._HHH_b2_07368_0001_0000300027_0000002_1_0001 (protein)
chain: SEEEREEIQRLFHELWEAFEKEDEELIKEIIKKIKEFVEEYSEDPAAMILLHVAEAAEKVVRSKS
B26: il10ra_site1_normal_mot_HHH_b1_06994_000000193_0001_40_55_H_._HHH_b1_08627_0001_0000200009_0000001_0 (protein)
chain: SSSSDKEERELIRAAIRLAKQVYEAGDDRSARFLLWSAEFLAEELGDEELRREIEELEEEISSSS
B27: il10ra_site1_sap_19_mot_HHH_b2_02690_000000247_0001_1_16_H_._HHH_b1_06405_0001_0000400019_0000002_0_0001 (protein)
chain: SSSSDISELAARALRLAFQLSDEETLRKIWELFRRYIEEGDERYREELEELLEELEEKEKRSSSS
B28: il10ra_site1_normal_mot_be5bd3f495b2ba9d9abb66d04d14a4bf_0001_000000065_0001_37_51_H_._HHH_b1_01400_0001_0000300022_0000002_0_af2pred_0001 (protein)
chain: SSSSDEELEELVEEVVEKFKLSEEAKRALEYLAEYQLELGASEEEIRRSLEAAARLLELARSSSS
B29: il10ra_site1_sap_22_mot_HHH_b2_07144_000000289_0001_1_18_H_._HHH_b1_07059_0001_0000400054_0000001_0_0001 (protein)
chain: SSSSSSDEHARYAAALSRLAFRIRDQEEAHEVLRLAHRVAEEGDPELIEQAEELLKELSSSSSSS
B30: il10ra_site1_sap_9_mot_HHH_b2_04945_000000076_0001_1_19_H_._HHH_b1_07971_0001_0000200014_0000002_0_0001_af2pred_0001 (protein)
chain: SSSSSDEEKRAAEILLESAKRIEDPHLREAALRLAAAAARQAGDEELLEEIEELLKRVRSSSSSS
B31: il10ra_site1_sap_20_mot_HHH_b2_03425_000000200_0001_22_39_H_._HHH_b1_04109_af2_0001_0000500017_0000001_0_0001_af2pred_0001 (protein)
chain: SSSSSSEAEELYEELEEAVERNDPELVLRLLVLLAQLLRQTGDPRIRELVKEAAKLLAELSSSSS
B32: il10ra_site1_normal_mot_HHH_b1_08508_000000230_0001_42_56_H_._5ee4a038a4e38403a52b52cc808907e6_0001_1_0001_0000100002_0000001_1 (protein)
chain: DEEAVEAALEILKRLLPPEEQELLEQIEEVLKRDPEKAEELAEELLERTGNVAVFSLLYIIRRLK
B33: il10ra_site1_sap_19_mot_HHH_b1_08279_000000069_0001_43_57_H_._HHH_b1_07794_0001_0000200012_0000002_0_0001 (protein)
chain: SLEEQLEELLRELGVPPERIELLKDAFRRQREQGSPPEDVLRALLYLLHATGDPAREAVEELLER
B34: il10ra_site1_normal_mot_HHH_b1_04940_000000219_0001_1_18_H_._HHH_b2_03614_0001_0000700045_0000001_0 (protein)
chain: SSSSSDEEERRYVELALRFARNIPDEESRRFLLRAARQIAELAGDPELEELVREVEEELSSSSSS
B35: il10ra_site1_sap_24_mot_HHH_b2_02497_000000141_0001_1_20_H_._HHH_b1_04531_0001_0001300093_0000001_0_0001_af2pred_0001 (protein)
chain: SSSSSNEEIIRWLLRAIKELIERGNEEEARLAIKDAKHAIEFLGDDELERILRELEEELNSSSSS
B36: il10ra_site1_sap_23_mot_HHH_b1_06174_af2_000000107_0001_40_57_H_._HHH_b2_03963_0001_0000300024_0000001_0_0001 (protein)
chain: SSSSSDEEYEEEVERLLEEAKRIEDPDEWYRLLKEALELAAELGDEELQKLIMKVNRERISSSSS
B37: il10ra_site1_normal_mot_HHH_b1_02997_000000220_0001_39_52_H_._HHH_b1_07718_af2_0001_0000100003_0000001_0_af2pred_dldesign_0_af2pred (protein)
chain: SSSSSNEQTQEVTRLIREAIELRAAGKPEEAKKLLEKALELAKAAKNEIMIRNVEYLLSQLSSSS

Target: il10ra, Q13651
Experiment: yeast display titration

Apparent Kd, active:
B23 233 to 399 nM

Apparent Kd, inactive:
B1 no binding seen
B2 no binding seen
B3 no binding seen
B4 no binding seen
B5 no binding seen
B6 no binding seen
B7 no binding seen
B8 no binding seen
B9 no binding seen
B10 no binding seen
B11 no binding seen
B12 no binding seen
B13 no binding seen
B14 no binding seen
B15 no binding seen
B16 no binding seen
B17 no binding seen
B18 no binding seen
B19 no binding seen
B20 no binding seen
B21 no binding seen
B22 no binding seen
B24 no binding seen
B25 no binding seen
B26 no binding seen
B27 no binding seen
B28 no binding seen
B29 no binding seen
B30 no binding seen
B31 no binding seen
B32 no binding seen
B33 no binding seen
B34 no binding seen
B35 no binding seen
B36 no binding seen
B37 no binding seen

Copied from the listing for reference:
Apparent Kd, inactive:
B31 no binding seen
B32 no binding seen
